Measured values taken from the supplement of paper PMC4807443.
Structures can show the parent of a compound that is named as a salt. Some of the results follow. The numbers are fractions of the control, whatever unit the source prints. Most entries show no effect beyond the scatter of the controls.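 A lentiviral reporter stably expressed in MIN6 mouse insulinoma beta cells uses Pdx1 and Ins1 promoters to drive separate nucleus-targeted fluorescent proteins; automated imaging with Hoechst nuclear stain counted cells. Possible hits were drugs shifting Ins1 promoter signal more than two median absolute deviations from DMSO controls, with Pdx1 activity roughly normal.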

system: MIN6; test: % Pdx1+ Ins1-low (RFP-only, immature) cells relative to DMSO control (fold of DMSO control); higher = more immature Pdx1+/Ins1-low cells; settings: 8.5 µM; 48 h; glucose 5 mM

Row | SMILES | % Pdx1+ Ins1-low
1 | CC[C@H](C)[C@H](N)C1=N[C@H](C(=O)N[C@@H](CC(C)C)C(=O)N[C@H](CCC(=O)O)C(=O)N[C@H](C(=O)N[C@H]2CCCCNC(=O)[C@H](CC(N)=O)NC(=O)[C@@H](CC(=O)O)NC(=O)[C@H](Cc3cnc[nH]3)NC(=O)[C@@H](Cc3ccccc3)NC(=O)[C@H]([C@@H](C)CC)NC(=O)[C@@H](CCCN)NC2=O)[C@@H](C)CC)CS1 [Bacitracin] | 0.814
2 | Oc1c(I)cc(Cl)c2cccnc12 [Clioquinol] | 0.924
3 | CC(=O)c1ccc2c(c1)N(CCCN(C)C)c1ccccc1S2 [Acetopromazine maleate salt] | 1.07
4 | CN(C)CCOC(C)(c1ccccc1)c1ccccn1 (configuration not stated) [Doxylamine succinate] | 0.838
5 | Nc1ccn([C@H]2CC[C@@H](CO)O2)c(=O)n1 [Zalcitabine] | 0.448
6 | CN(C(=O)C(Cl)Cl)c1ccc(OC(=O)c2ccco2)cc1 [Diloxanide furoate] | 0.871
7 | Nc1nc2ccc(OC(F)(F)F)cc2s1 [Riluzole hydrochloride] | 1.23
8 | COc1ccc2c(c1)c(CC(=O)O)c(C)n2C(=O)c1ccc(Cl)cc1 [Indomethacin] | 0.74
9 | O=C(C1CCCCC1)N1CC(=O)N2CCc3ccccc3C2C1 (configuration not stated) [Praziquantel] | 1.17
10 | C(=C\c1ccccc1)/CN1CCN(C(c2ccccc2)c2ccccc2)CC1 [Cinnarizine] | 0.801
11 | CCOC(=O)O[C@]1(C(=O)COC(=O)CC)CC[C@H]2[C@@H]3CCC4=CC(=O)C=C[C@]4(C)[C@H]3[C@@H](O)C[C@@]21C [Prednicarbate] | 0.747
12 | COc1ccc2c(c1OC)C(=O)O[C@@H]2[C@H]1c2c(cc3c(c2OC)OCO3)CCN1C [Noscapine] | 1.13
13 | C=C1c2c(Cl)ccc(O)c2C(=O)C2=C(O)[C@]3(O)C(=O)C(C(N)=O)=C(O)[C@@H](N(C)C)[C@@H]3[C@@H](O)[C@H]12.O=C(O)c1cc(S(=O)(=O)O)ccc1O [Meclocycline sulfosalicylate] | 0.97
14 | CC(C)(C)NCC(O)COc1cccc2c1CCC(=O)N2 (configuration not stated) [Carteolol hydrochloride] | 1.2
15 | COc1ccc([C@@H]2CC(=O)c3c(O)cc(O[C@@H]4O[C@H](CO[C@@H]5O[C@@H](C)[C@H](O)[C@@H](O)[C@H]5O)[C@@H](O)[C@H](O)[C@H]4O)cc3O2)cc1O [Hesperidin] | 0.718
16 | C[N+]1(C)C[C@H](O)C[C@H]1C(=O)[O-] [Betonicine] | 0.504
17 | NS(=O)(=O)c1cc(C(=O)O)cc(N2CCCC2)c1Oc1ccccc1 [Piretanide] | 1.31
18 | CN(C)CCCN1c2ccccc2Sc2ccccc21 [Promazine hydrochloride] | 0.707
19 | Cc1cc(C(C)(C)C)c(O)c(C)c1CC1=NCCN1 [Oxymetazoline hydrochloride] | 0.755
20 | CSc1ccc2c(c1)C(N1CCN(C)CC1)Cc1ccccc1S2 (configuration not stated) [Methiothepin maleate] | 0.818
21 | COC(=O)[C@H]1[C@H]2C[C@H]3c4[nH]c5ccccc5c4CCN3C[C@@H]2CC[C@@H]1O [Corynanthine hydrochloride] | 1.14

Two successive entries out of the list so far, quoted:
Row | SMILES | % Pdx1+ Ins1-low
19 | Cc1cc(C(C)(C)C)c(O)c(C)c1CC1=NCCN1 [Oxymetazoline hydrochloride] | 0.755
20 | CSc1ccc2c(c1)C(N1CCN(C)CC1)Cc1ccccc1S2 (configuration not stated) [Methiothepin maleate] | 0.818

Following part:

Row | SMILES | % Pdx1+ Ins1-low
22 | C[C@]1(OC(=O)/C=C/c2ccccc2)C[C@@H](O)[C@]2(O)C=CO[C@@H](O[C@@H]3O[C@H](CO)[C@@H](O)[C@H](O)[C@H]3O)[C@@H]21 [Harpagoside] | 0.71
23 | Clc1cnccn1 [2-Chloropyrazine] | 0.726
24 | Cc1cc2c(cc1S(N)(=O)=O)S(=O)(=O)CCC2 [Meticrane] | 0.95
25 | CC1(C)S[C@@H]2[C@H](NC(=O)[C@H](NC(=O)N3CCNC3=O)c3ccccc3)C(=O)N2[C@H]1C(=O)O [Azlocillin sodium salt] | 0.823
26 | COC(=O)Nc1nc2cc(C(=O)c3ccccc3)ccc2[nH]1 [Mebendazole] | 0.639
27 | CC(CCc1ccccc1)NCC(O)c1ccc(O)c(C(N)=O)c1 (configuration not stated) [Labetalol hydrochloride] | 0.623
28 | COc1ccc(C(Cl)=C(c2ccc(OC)cc2)c2ccc(OC)cc2)cc1 [Chlorotrianisene] | 1.14
29 | Cc1oncc1C(=O)Nc1ccc(C(F)(F)F)cc1 [Leflunomide] | 0.791
30 | O=C(O)c1cccnc1Nc1cccc(C(F)(F)F)c1 [Niflumic acid] | 0.626
31 | C[N+](C)(C)CCCCCC[N+](C)(C)C [Hexamethonium dibromide dihydrate] | 0.879
32 | CC[N+](C)(C)Cc1ccccc1Br [Bretylium tosylate] | 0.988
33 | CN(C)/N=N/c1[nH]cnc1C(N)=O [Dacarbazine] | 0.803
34 | Cc1onc(-c2c(Cl)cccc2Cl)c1C(=O)N[C@@H]1C(=O)N2[C@@H]1SC(C)(C)[C@@H]2C(=O)O [Dicloxacillin sodium salt] | 1.46
35 | CN1C(C)(C)CCCC1(C)C [Pempidine tartrate] | 0.755
36 | N=C(N)c1ccc(OCCCCCOc2ccc(C(=N)N)cc2)cc1 [Pentamidine isethionate] | 0.918
37 | CC(=O)Nc1cc2ccccc2oc1=O [3-Acetamidocoumarin] | 1.22
38 | Fc1ccc(C(c2ccc(F)cc2)N2CCN(C/C=C/c3ccccc3)CC2)cc1 [Flunarizine dihydrochloride] | 1.03
39 | CN[C@@H]1[C@H](O[C@H]2[C@H](O[C@H]3[C@H](O)[C@@H](O)[C@H](N=C(N)N)[C@@H](O)[C@@H]3N=C(N)N)O[C@@H](C)[C@]2(O)C=O)O[C@@H](CO)[C@H](O)[C@H]1O [Streptomycin sulfate] | 1
40 | CC1(C)S[C@@H]2[C@H](NC(=O)[C@H](N)c3ccc(O)cc3)C(=O)N2[C@H]1C(=O)O [Amoxicillin] | 1.2
41 | COc1cccc2c1C(=O)c1c(O)c3c(c(O)c1C2=O)C[C@@](O)(C(=O)CO)C[C@@H]3O[C@H]1C[C@H](N)[C@H](O)[C@H](C)O1 [Doxorubicin hydrochloride] | 2.13
42 | C[C@]12CCC(=O)C=C1CC[C@@H]1[C@@H]2[C@@H](O)C[C@@]2(C)[C@H]1CC[C@]2(O)C(=O)CO [Hydrocortisone base] | 0.973
